# Assay results reported in the supplement of paper PMC7024190.
# Counter-ions that a name gives are not always drawn. Some of the results follow. Single values are uncertain here, since repeats match poorly.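 A first-round screen of about ten thousand compounds sought those raising reporter output, using human embryonic kidney cells briefly transfected with a plasmid carrying a Renilla luciferase gene driven by the HSV-TK promoter.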
# Test system: HEK 293FT
# Test: log relative Renilla luciferase luminescence (reporter expression vs reference, reference not stated) (log (base not stated)); higher = higher recombinant reporter expression
# Details: 10 µM; time after transfection 48 h
row,SMILES,log
1,CC(C)c1ccccc1S(=O)(=O)c1cc(N)c2ncccc2c1[N+](=O)[O-],0.2
2,Nc1nc(NCCc2ccc(O)cc2)nc2nc(-c3ccco3)nn12,0.031
3,O=C(NCCCN1CCC2(CC1)OCc1ccccc12)[C@H]1CCCN1Cc1ccccc1,0.0581
4,CCN(CC)CCOc1ccc(Cc2ccccc2)cc1 [DPPE fumarate],-0.012
5,Cc1c[nH]c(=O)n(CCCN2CCN(c3ccccc3OCC(F)(F)F)CC2)c1=O,0.0032
6,O=c1cc(-c2cccc3c2Sc2ccccc2S3)oc(N2CCOCC2)c1,0.277
7,Fc1ccc(Cl)cc1-c1nc(Nc2ccncc2)c2nccnc2n1,-0.19
8,Cc1nc2ccc(NC(=O)Nc3ccnc4cccnc34)cc2o1,0.102
9,Cn1cc(C2=C(c3ccc(Cl)cc3Cl)C(=O)NC2=O)c2ccccc21,0.0175
10,COc1ccccc1N1CCN(CCCNc2cc(=O)n(C)c(=O)n2C)CC1 [Urapidil hydrochloride],0.0264
11,CNC(=O)[C@@H](Cc1ccccc1)N(C)C(=O)[C@@H](Cc1ccc2ccccc2c1)N(C)C(=O)/C=C/CC(C)(C)N [Tabimorelin],-0.0382
12,Nc1nc(-c2ccc(Cl)c(Cl)c2)c(-c2ccncc2)s1 [CGH 2466 dihydrochloride],-0.0492
13,COc1ccc([C@@H]2Sc3ccccc3N(CCN(C)C)C(=O)[C@@H]2OC(C)=O)cc1 [Diltiazem hydrochloride],-0.0109
14,COc1ccccc1N1CCN(CCCCN2C(=O)c3ccccc3C2=O)CC1 [NAN-190 hydrobromide],0.0792
15,N[C@H](C(=O)O)c1ccc(C(=O)O)c(O)c1 [(S)-4-Carboxy-3-hydroxyphenylglycine],-0.00108
16,NC(N)=Nc1ccc(Cl)cc1 [4-Chlorophenylguanidine hydrochloride],0.147
17,Cc1nc2sccn2c(=O)c1CCN1CCC(=C(c2ccc(F)cc2)c2ccc(F)cc2)CC1 [Ritanserin],0.169
18,C=C1/C(=C\C=C2/CCC[C@]3(C)[C@@H]([C@H](C)/C=C/[C@@H](O)C4CC4)CC[C@@H]23)C[C@@H](O)C[C@@H]1O [Calcipotriol],-0.0475
19,NCCCCNCCCN [Spermidine trihydrochloride],0.0496
20,CCCCCS(=O)(=O)CCCCCCCCCCn1c(-c2ccc(O)cc2)c(C)c2cc(O)ccc21,0.0486

row,SMILES,log
1,C[C@@H](CN1CC(=O)NC(=O)C1)N1CC(=O)NC(=O)C1 [Dexrazoxane hydrochloride],-0.0358
2,O=C1NC(c2cccc([N+](=O)[O-])c2)=CCN1c1ccccc1O [Icilin],0.189
3,COc1cc2nc(N3CCN(C(=O)C4CCCO4)CC3)nc(N)c2cc1OC (stereo not given) [Terazosin hydrochloride],0.171
4,c1ccc(-c2[nH]ncc2-c2ccnc3ccccc23)nc1,-0.0555
5,Oc1ccc(C2CNCCc3c2cc(O)c(O)c3Cl)cc1 (stereo not given) [Fenoldopam hydrochloride],0.141
6,OC1CCC(Nc2nc(-c3ccccc3)nc3[nH]ccc23)CC1 (stereo not given),-0.00242
7,"Cc1ccc(OCC(O)C(C)NC(C)C)c2c1CCC2 (stereo not given) [ICI-118,551 hydrochloride]",0.0692
8,CC(C)NCC(O)COc1ccc(COCCOC(C)C)cc1 (racemic) [(±)-Bisoprolol hemifumarate],0.0747
9,COCC(=O)O[C@]1(CCN(C)CCCc2nc3ccccc3[nH]2)CCc2cc(F)ccc2[C@@H]1C(C)C [Mibefradil dihydrochloride],0.00849
10,COC(=O)[C@H](NC(=O)c1cc(-c2ccccc2)nc2ccccc12)c1ccccc1,0.0158
11,CCOCC(O)COc1ccc(NC(=O)CC[S+](C)C)cc1 (stereo not given) [Suplatast tosylate],-0.0182
12,C=C[C@@]1(C)CC(=O)[C@]2(O)[C@@]3(C)[C@@H](O)CCC(C)(C)[C@@H]3[C@H](O)[C@H](OC(C)=O)[C@@]2(C)O1 [Forskolin],-0.0153
13,COc1cc2c(cc1C(F)(F)F)N(C(=O)Nc1cc(F)cc(-c3cccnc3)c1)CC2,0.0525
14,CN(C)CCCCSC(=N)N,0.03
15,O=c1[nH]c2cc(C(F)(F)F)c(N3CCOCC3)cc2n(CP(=O)(O)O)c1=O,-0.158
16,CCn1c(=O)[nH]c2cc(Cl)c(Cl)cc21,0.0932
17,OCC1OC(n2cnc3c(NC4CCCC4)nc(Cl)nc32)C(O)C1O (stereo not given) [2-Chloro-N6-cyclopentyladenosine],0.0512
18,CC1=C(/C=C/C(C)=C/C=C/C(C)=C/C(=O)Nc2ccc(O)cc2)C(C)(C)CCC1 [Fenretinide],0.034
19,NC(=O)Nc1sc(-c2ccc(F)cc2)cc1C(N)=O,-0.012
20,COC(=O)C1=C(C)NC(C)=C(C(=O)OC(C)C)C1c1cccc2nonc12 (stereo not given) [Isradipine],-0.00324
